Results are given in words; binding and its absence hold for the method and conditions named. Some results given as binding are weak or reduced against the parent protein; the word gives no strength. Where a sequence is shown, tags or fusion partners need not be part of it.
Biological target: T1, Mouse IL-18BP (isoform D) (mouse, UniProt Q9Z0M9 29-193, biotinylated (site not stated))
T1 sequence: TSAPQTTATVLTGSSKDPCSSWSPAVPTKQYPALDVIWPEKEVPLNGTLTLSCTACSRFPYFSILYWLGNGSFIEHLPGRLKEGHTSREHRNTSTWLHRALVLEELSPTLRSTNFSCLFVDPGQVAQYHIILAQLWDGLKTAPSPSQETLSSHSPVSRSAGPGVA
Assay: SPR by reference to Table 8

binding: binds
B1: Mouse IL-18 T44C/L189C Fc (Fc fusion)
chain: NFGRLHSTCAVIRNINDQVLFVDKRQPVFEDMTDIDQSASEPQTRLIIYMYKDSEVRGLAVTLSVKDSKMSTLSSKNKIISFEEMDPPENIDDIQSDLIFFQKRVPGHNKMEFESSLYEGHFLASQKEDDAFKLILKKKDENGDKSVMFTLTNCHQSGGGGAGGGGEPRGPTIKPCPPCKCPAPNAAGGPSVFIFPPKIKDVLMISLSPIVTCVVVDVSEDDPDVQISWFVNNVEVHTAQTQTHREDYNSTLRVVSALPIQHQDWMSGKEFKCKVNNKDLGAPIERTISKPKGSVRAPQVYVLPPPEEEMTKKQVTLTCMVTDFMPEDIYVEWTNNGKTELNYKNTEPVLDSDGSYFMYSKLRVEKKNWVERNSYSCSVVHEGLHNHHTTKSFSRTPGK

From patent US20240409599A1 (Genentech, published 2024)
